Assay results reported in EP4520345A1, “PRODUCT” (MYNEO NV, priority 2023, dated 2025).

test system: colorectal cancer tissue; test: Mass spectrometry proteomics: translation of camyopeptides in colorectal cancer tissue samples; conditions: share of colorectal cancer tissue samples in which the camyopeptide is detected as translated
Experimental: Mass spectrometry was used to derive proteomics data from the colorectal cancer tissue. The data was analysed and 79 polypeptides (camyopeptides; and defined according to SEQ ID NOs 19-97) corresponding to open reading frames (ORFs) in the 18 camyoRNAs defined according to SEQ ID NOs 1-18 were determined as being translated.

| Molecule | Translation Coverage (MS) [%] |
| --- | --- |
| IncFANCM1 0122163: camyopeptide translated from an ORF in camyoRNA Inc-FANCM-10:1 (MMARLKTVRSSCLDRKATGCSPGSCVRILTALTMPRKGRSCCFIRD) | 8.42 |
| IncFANCM1 0125163: camyopeptide translated from an ORF in camyoRNA Inc-FANCM-10:1 (MARLKTVRSSCLDRKATGCSPGSCVRILTALTMPRKGRSCCFIRD) | 8.42 |
| IncSLC39A1 071160117 69: camyopeptide translated from an ORF in camyoRNA Inc-SLC39A10-7:1 (MWRHREKLAIYKPTRIAWNKFFHHTPQKESTLTAPPLQSCSLQNCETIHFCCLRR) | 1.05 |
| LINC024189 23092465: camyopeptide translated from an ORF in camyoRNA LINC02418:9 (MAAEPLVGAECRVCSVNMPGKGIMHVRDRVEKDCARLHHTTQNGTQFRTYK) | 14.74 |
| IncTRPC531 16031801: camyopeptide translated from an ORF in camyoRNA Inc-TRPCS-3:1 (peptide) MNVPKGQTGNSSRGPGDGGNKDHWKESDRKDGKKDQDSRSAPEPKKPEENPASKFSSASNYAALS | 81.05 |
| IncSLC39A1 071154117 69: camyopeptide translated from an ORF in camyoRNA Inc-SLC39A10-7:1 (peptide) MVDVLMKRRNLKTDTPKENAMWRHREKLAIYKPTRIAWNKFFHHTPQKESTLTAPPLQSCSLQNCETIHFCCLRR | 9.47 |
| IncTH11352 23804: camyopeptide translated from an ORF in camyoRNA Inc-TH-1:1 (peptide) MQMCSQWPWQNLTKSAPATRPASKDALSRRPLQLSSDCPRDTLSEHCPAKTRQLQNCERRWFHDFLAVVTAVGQLWVTLKGHSDKGHLPACVT | 5.26 |
| IncSLC39A1 071155617 69: camyopeptide translated from an ORF in camyoRNA Inc-SLC39A10-7:1 (peptide) MKRRNLKTDTPKENAMWRHREKLAIYKPTRIAWNKFFHHTPQKESTLTAPPLQSCSLQNCETIHFCCLRR | 9.47 |
| IncPLA2G1B 231094711 151: camyopeptide translated from an ORF in camyoRNA Inc-PLA2G1B-2:3 (peptide) MFDTGCSNNKKPPMQMGLKYGWWSGNTSYTRTHGQALTLNVMVVIIRGGAGREQNLSSFAQWQYRSQ | 16.84 |
| IncTRPC531 28328: camyopeptide translated from an ORF in camyoRNA Inc-TRPCS-3:1 (peptide) MAASAKKKNKKGKTISLTDFLAEDGGTGGGSTYVSKPVSWADETMTWKEMFRQLGTVTMTMCIGCLQLTVPSFPLLHGLLGNPISTGAVFPNRHPTLLF | 12.63 |
| IncTACR311 255462: camyopeptide translated from an ORF in camyoRNA Inc-TACR3-1:1 (peptide) MKRAWPPCHSGERQSKTKKTESCSATQAGVEGSGVISAHFNLRLLGSSDSPASASRVAGTTAASLQVS | 3.16 |
| IncHOXB815 19402135: camyopeptide translated from an ORF in camyoRNA Inc-HOXB8-1:5 (peptide) MENLLLSHPEGHLTRPLEQTKGAGSQSLRSQFSEAQEENGFSFVLVRRPSREFGFHQVLFFQKK | 5.26 |
| IncSLC39A1 021699888: camyopeptide translated from an ORF in camyoRNA Inc-SLC39A10-2:1 (peptide) MYQHVHHYTVIGLGKAEEKQEPASSSYKQKSCLGVVAHACNPSTLGGQSGRITRSGDRDHPG | 20 |
| LINC024189 28443054: camyopeptide translated from an ORF in camyoRNA LINC02418:9 (peptide) MELRIISTTRAGVRQDAQSIHPMTGALCLRSAKPRSEVLTRLHQEQGTRLPRGSWSTEGRDAHKHTMSK | 3.16 |
| IncTH11352 83804: camyopeptide translated from an ORF in camyoRNA Inc-TH-1:1 (peptide) MCSQWPWQNLTKSAPATRPASKDALSRRPLQLSSDCPRDTLSEHCPAKTRQLQNCERRWFHDFLAVVTAVGQLWVTLKGHSDKGHLPACVT | 5.26 |
| LINC024189 42034404: camyopeptide translated from an ORF in camyoRNA LINC02418:9 (peptide) MSLLIRECLSSLYLNFSKRENAFRTSNSDGSRVFLAALFLNEDSPGGSLCCRDTQISPCSCSFQSF | 1.05 |
